Record: PubChem BioAssay AID504791 (Drosophila RNAi Screening Center, 2011)
The deposit covers about 23,000 reagents; shown is an unselected part of those that have a named target and a result. In the full data, 199 (0.86%) are marked active. 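Plate-scaled ratios behind the calls are not deposited; printed light signals are raw; many rows marked increased or decreased are still called inactive.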 Reagents against one gene are numbered here. Names joined by + are all predicted targets of the reagent. No sequences are given here. Not stated in the record: the direction of the score.

Screen: 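Genes whose knock-down strengthens or weakens small-RNA reporter silencing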 (primary screen)
System: Drosophila S2-derived reporter cells
Reagents: long dsRNA against Drosophila genes, about 150-250 ng dsRNA per well (siRNA assay); about 80-120 ng (miRNA assay)
Timing: about 5 days (siRNA assay); about 4 days (miRNA assay)
Challenge: copper sulfate induction of reporters: 25 µM (siRNA assay); 200 mM stated (miRNA assay), 1-2 days before reading
Measured: 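Dual luciferase assay: Renilla to firefly signal ratio in each well, scaled to the mean ratio of its plate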
Active means: 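a well was a first-pass pick when its plate-scaled ratio rose above 1.5 (siRNA assay) or 1.6 (miRNA assay), or dropped below 0.6; a gene counted only if two separate dsRNAs agreed on retest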

predicted target | reagent | miRNA reporter change | stable assay Renilla, run 1 (luminescence) | stable assay firefly, run 1 (luminescence) | call
MCU | 1 | – | 6650 | 3.91e5 | inactive
Mes2 | 1 | – | 5258 | 4.28e5 | inactive
Mes2 | 2 | – | 4692 | 4.83e5 | inactive
CG10560 | 1 | – | 7298 | 3.37e5 | inactive
Tmtc2 | 1 | – | 17401 | 3.64e5 | inactive
Cyp309a2 | 1 | – | 10127 | 7.00e5 | inactive
DIP-theta | 1 | – | 2719 | 3.57e5 | inactive
DIP-theta | 2 | – | 7771 | 4.94e5 | inactive
DIP-theta | 3 | – | 8879 | 4.36e5 | inactive
CG12998 | 1 | – | 5242 | 4.05e5 | inactive
Hip1 | 1 | – | 7606 | 3.57e5 | inactive
aru | 1 | – | 7063 | 4.27e5 | inactive
aru | 2 | – | 7757 | 5.03e5 | inactive
Amph | 1 | – | 8250 | 4.70e5 | inactive
CG8750 | 1 | – | 6539 | 3.98e5 | inactive
LysD + LysB + LysC (retired record) | 1 | – | 5950 | 4.49e5 | inactive
Ppr-Y | 1 | – | 4288 | 3.42e5 | inactive
CG3407 | 1 | – | 39918 | 3.51e5 | inactive
Jhbp7 | 1 | – | 6967 | 3.72e5 | inactive
CG7966 | 1 | – | 7335 | 3.91e5 | inactive
CG6282 | 1 | – | 7463 | 4.01e5 | inactive
CG18661 | 1 | – | 7370 | 3.67e5 | inactive
CG31869 | 1 | – | 7775 | 3.51e5 | inactive
CG31869 | 2 | – | 7202 | 3.55e5 | inactive
D1 | 1 | – | 8302 | 5.48e5 | inactive
CG9702 | 1 | – | 6160 | 4.23e5 | inactive
CG3650 | 1 | – | 6274 | 3.93e5 | inactive
Obp99a | 1 | – | 7782 | 5.17e5 | inactive
5-HT7 | 1 | – | 7235 | 4.21e5 | inactive
Boh1 | 1 | – | 7333 | 5.07e5 | inactive
CG13364 | 1 | – | 6371 | 3.94e5 | inactive
CG13364 | 2 | – | 5539 | 4.19e5 | inactive
CG1907 | 1 | – | 7067 | 3.68e5 | inactive
CG10909 | 1 | – | 7027 | 3.69e5 | inactive
Ir67b | 1 | – | 5892 | 4.38e5 | inactive
CG8389 | 1 | – | 11203 | 5.07e5 | inactive
CG8389 | 2 | – | 3607 | 4.12e5 | inactive
U2af38 | 1 | reporter ratio lowered past the hit cutoff | 10197 | 7.35e5 | inactive
fs(1)Yb | 1 | – | 6184 | 4.02e5 | inactive
CNT2 | 1 | – | 8666 | 4.00e5 | inactive
Bx | 1 | – | 4808 | 5.12e5 | inactive
Bx | 2 | – | 5982 | 3.21e5 | inactive
veil | 1 | – | 9051 | 3.91e5 | inactive
ND-51L1 | 1 | – | 5944 | 2.55e5 | inactive
slf | 1 | – | 7863 | 4.52e5 | inactive
RpS4 | 1 | reporter ratio lowered past the hit cutoff | 5195 | 3.16e5 | inactive
rdgBbeta | 1 | – | 6288 | 3.10e5 | inactive
CG32152 | 1 | – | 3999 | 3.81e5 | inactive
CG6567 | 1 | – | 6795 | 3.53e5 | inactive
for | 1 | – | 4930 | 3.58e5 | inactive
for | 2 | – | 22979 | 2.76e5 | inactive
Ptp52F | 1 | – | 6466 | 3.76e5 | inactive
nis | 1 | – | 15578 | 1.14e5 | inactive
Rtc1 | 1 | – | 9561 | 6.12e5 | inactive
GstT4 | 1 | – | 7558 | 4.29e5 | inactive
stnB + stnA | 1 | – | 5826 | 5.21e5 | inactive
stnB + stnA | 2 | – | 4424 | 3.44e5 | inactive
stnB + stnA | 3 | – | 4930 | 2.97e5 | inactive
Gpdh3 | 1 | – | 4631 | 3.93e5 | inactive
Gpdh3 | 2 | – | 6462 | 2.85e5 | inactive
CG34195 | 1 | – | 6666 | 3.21e5 | inactive
Tsen2 | 1 | – | 5543 | 3.32e5 | inactive
CG12895 | 1 | – | 6675 | 3.83e5 | inactive
CG13978 | 1 | – | 5960 | 4.00e5 | inactive
mRpS21 | 1 | – | 3687 | 4.23e5 | inactive
mRpS21 | 2 | – | 7711 | 4.39e5 | inactive
CG8260 | 1 | – | 5396 | 4.44e5 | inactive
CG14692 | 1 | – | 5756 | 3.16e5 | inactive
Tango10 | 1 | – | 7082 | 5.28e5 | inactive
CG9400 | 1 | – | 8707 | 4.10e5 | inactive
CG8952 | 1 | – | 6850 | 3.36e5 | inactive
Ptpa | 1 | – | 49177 | 1.71e5 | inactive
CG7201 | 1 | – | 5835 | 3.78e5 | inactive
GV1 | 1 | – | 6152 | 3.37e5 | inactive
nop5 | 1 | – | 6622 | 4.77e5 | inactive
CG7248 | 1 | – | 5855 | 4.52e5 | inactive
CG5623 | 1 | – | 6935 | 4.85e5 | inactive
uzip | 1 | – | 19660 | 1.26e6 | inactive
tsg | 1 | – | 5399 | 4.00e5 | inactive
y | 1 | – | 8383 | 6.06e5 | inactive
robo3 | 1 | – | 9256 | 4.21e5 | inactive
robo3 | 2 | – | 7920 | 3.42e5 | inactive
robo3 | 3 | – | 7575 | 4.82e5 | inactive

As entered above.
Result of CG10909 in “call”: inactive
Value for nis under “stable assay Renilla, run 1 (luminescence)”: 15578
For “stable assay Renilla, run 1 (luminescence)”, Ptpa is entered as 49177
Result for CG31869 #1 under “stable assay Renilla, run 1 (luminescence)”: 7775
CG18661, call → inactive
for #2, call: inactive
